Several values for one entry are separate records, joined by “and”; a condition that tells them apart may be missing. Equal entries are not always repeated. The list shows a part of the results. Shown are side measurements of this screen, not its main read-out; they come without a call. The list favours compounds with an active or inconclusive main result. Words in brackets tell the shape of the fitted curve; partial curves, single points and poor fits give uncertain potencies.
Test: qHTS Assay for Modulators of Lamin A Splicing
Conditions: HeLa LMNA splicing GFP/RFP minigene ratio, 48 h
Description: NCGC Assay Overview: Hutchinson-Gilford Progeria Syndrome (HGPS) is a pediatric premature aging disease caused by a spontaneous mutation in the lamin A/C (LMNA) gene. The mutation activates a cryptic splice site in the LMNA pre-mRNA which results in production of a pre-lamin A protein that cannot be processed properly. The mutant protein accumulates in the nucleus and negatively affects numerous cellular functions. Correction of the splicing defect in HGPS patient cells using a targeted oligonucleotide (exo11) leads to reversal of the cellular disease phenotypes. To identify small molecule modulators of aberrant LMNA splicing, a homogenous assay was constructed in HeLa cells that used a GFP containing minigene to report on correction of aberrant splicing in lamin A and a RFP (DsRed2) to report on cell viability, uniformity and nonspecific effects on the assay signal. This assay was adapted to laser-scanning microplate cytometry (Acumen, TTP Labtech) where miniaturization of the assay to a 1,536-well plate format was possible. References: Bowen, W. P.; Wylie, P. G. Application of Laser-Scanning Fluorescence Microplate Cytometry in High Content Screening. Assay Drug Dev Technol 2006;4:209-221. Scaffidi P, Misteli T. Reversal of the cellular phenotype in the premature aging disease Hutchinson-Gilford progeria syndrome. Nat.
NCGC Assay Protocol Summary: Reagents/Controls: Stable clones expressing DsRed2 and lamin A-EGFP were generated by Cell and Molecular Technologies in S3 HeLa cells. HeLa cells were prepared for the assay when they were 70-90% confluent. The cells were counted and resuspended in Opti-MEM I (no phenol red; Gibco), 2% FBS, 1% penicillin/ streptomycin (Gibco) at concentration of 120 cells/uL concentration. The suspension was passed through a Falcon basket filter with pore size 40um (Beckton Dickson). Control titrations: column […] 1536-well plate contained a sixteen point titration (1:2 dilutions) in duplicate of ancitabine (Sigma: A8598) beginning at 40 uM final concentration. Column 2 contained a sixteen point titration (1:2 dilutions) of cycloheximide beginning at 1.4 mM final concentration. Column 3 contained ancitabine at 40 uM and column 4 contained was the vehicle control (0.5% DMSO final concentration). Assay Steps: 5 uL of HeLa cells were plated in Aurora LoBase black clear bottom (cyclic-olefin polymer) 1536-well plates at a final density of 600 cells/well. Controls and library compounds were added with a 1536-well pin array using the Kalypsys pin-tool. The plates were then incubated for 48 hrs in a cell-culture incubator (37 °C; 5% CO2, 98% humidity). Following incubation the plates were read on the Acumen Explorer using the 488 nm laser. Data was collected on objects between 10 and 100 um in size. Cell objects were defined by a 15 um width x 10 um depth filter. The ratio of the total object intensity in PMT1 (500-530 nm emission; GFP) over PMT3 (575-640 nm emission; RFP) was calculated for analysis. Keywords: NIH Roadmap, MLSCN, MLI, MLSMR, qHTS, NCGC, lamin A, Progeria, RNA splicing.

[1] = measured here: RFP viability control channel
[2] = measured here: GFP splicing reporter channel

SMILES | AC50 [1] | AC50 [2]
Cn1cnnc1SCC(=O)NCCc1ccc(Cl)cc1Cl | 7.08 µM [falling, partial curve, poor fit] | 
CCN(CC)S(=O)(=O)c1ccc2oc(C(=O)NCC3COc4ccccc4O3)c(C)c2c1 (stereo not drawn) | 10 µM [rising, partial curve] | 
CCn1c2c(c3cc(Br)ccc31)CCC/C2=N\O |  | 15.8 µM [rising, partial curve, poor fit]
CCOc1ccc2[nH]cc(C(=O)N3CCN(CC)CC3)c(=O)c2c1 |  | 11.2 µM [rising, single point]
Cc1ccccc1C(=O)Nc1ccc(-c2nc3ccc(C(=O)c4ccccc4)cc3[nH]2)cc1 | 2.82 µM [falling, full curve, poor fit] | 2.82 µM [falling, full curve, poor fit]
Cc1cc([N+](=O)[O-])ccc1NC(=O)c1cccc(NC(=O)C(C)C)c1 | 0.00794 µM [falling, full curve, poor fit] | 
CS(=O)(=O)OCCCCOS(C)(=O)=O |  | 0.000891 µM [falling, full curve, poor fit]
O=C(CNC(=O)c1ccc(F)cc1)N/N=C/c1cc(Br)ccc1OCc1ccccc1 | 12.6 µM [rising, partial curve] | 8.91 µM [rising, partial curve]
Cc1ccc(S(=O)(=O)N(CC(=O)NCCSc2ccccn2)c2ccc(C)c(C)c2)cc1 | 31.6 µM [rising, single point] | 
O=C(CNCCO)N1CCc2ccccc21 | 35.5 µM [falling, single point] | 35.5 µM [falling, single point]
Cc1cc(C)n(-c2ccc(C(=O)OCC(=O)Nc3cc(Cl)ccc3[N+](=O)[O-])cc2)n1 | 7.94 µM [rising, partial curve, poor fit] | 20 µM [rising, partial curve, poor fit]
CCc1nn2c(=O)cc(COC(=O)c3cccc(NC(=O)c4ccccc4Cl)c3)nc2s1 | 35.5 µM [rising, single point] | 
CCOC(=O)c1c(C)n(C)c2ccc(O)c(CN(C)C)c12 | 5.62 µM [falling, single point] | 6.31 µM [falling, single point]
COc1ccc(-c2cc(-c3cc(C)ccc3O)[nH]n2)cc1 | 15.8 µM [rising, partial curve] | 2.82 µM [rising, partial curve, poor fit]
O=C(NNc1nc2ccc(Cl)cc2s1)c1cc(-c2cccs2)nc2ccccc12 | 11.2 µM [rising, partial curve] | 
O=C(Nc1nc(-c2ccccc2)cs1)c1ccccc1NS(=O)(=O)c1ccc(F)cc1 | 3.55 µM [rising, partial curve] | 3.55 µM [rising, single point]
Cc1cc2ncn(CCCCOc3ccccc3)c2cc1C | 17.8 µM [rising, single point] | 35.5 µM [rising, single point]

SMILES | AC50 [1] | AC50 [2]
CCCCN(CCCC)S(=O)(=O)c1ccc(C(=O)Nc2nnc(COC)o2)cc1 | 31.6 µM [falling, single point] | 4.47 µM [falling, partial curve]
Cc1nonc1OCCNCCNc1ccc([N+](=O)[O-])cc1Cl |  | 7.94 µM [falling, partial curve, poor fit]
COc1ccc(OC)c(NC(=O)CN(Cc2ccc(Cl)cc2)S(C)(=O)=O)c1 | 7.08 µM [falling, full curve, poor fit] | 
COCCCNC(=O)c1oc2c(c1C)-c1nn(Cc3cccc(Cl)c3)cc1CC2 | 35.5 µM [falling, partial curve] | 35.5 µM [falling, partial curve, poor fit]
O=C(COc1cccc(Cl)c1)Nc1ccc2c(c1)CCC2 | 25.1 µM [rising, single point] | 14.1 µM [rising, single point]
O=C(/C=C/c1ccc(O)cc1)c1ccc(O)cc1O | 12.6 µM [rising, partial curve, poor fit] and 6.31 µM [falling, full curve, poor fit] | 6.31 µM [falling, full curve, poor fit]
COc1ccc(C2(C(N)=O)CCCCC2)cc1OC | 22.4 µM [rising, single point] | 1 µM [rising, partial curve, poor fit]
COc1ccc(C(=O)NCC(O)COc2ccc(C(C)(C)C)cc2)cc1[N+](=O)[O-] (stereo not drawn) | 35.5 µM [rising, single point] | 15.8 µM [rising, single point]
O=C(N/C=C\c1ccccc1)NCc1ccc(Cl)cc1 | 3.16 µM [falling, partial curve, poor fit] | 
COCn1ccnc1C(O)(c1ccc(OC)cc1)c1ccc(OC)cc1 |  | 0.112 µM [falling, partial curve]
CC(C)OCCCNC(=O)Cc1ccc(Br)cc1 | 0.0158 µM [falling, full curve, poor fit] | 
Cn1c2c(c(=O)n(C)c1=O)C(C(F)(F)F)(C(F)(F)F)N=C(c1ccc(Cl)cc1)N2 | 11.2 µM [falling, partial curve] | 
NS(=O)(=O)c1cc(C(=O)NCCOc2ccccc2)c(Cl)cc1Cl |  | 12.6 µM [rising, single point]
CCN(CC)C(=O)CSC1=N/C(=C/c2ccco2)C(=O)N1c1ccc(OC)c(Cl)c1 | 20 µM [rising, partial curve, poor fit] | 
COc1ccccc1N1CCN(c2ncc(C(=O)N3CCN(c4cccc(Cl)c4)CC3)c3ccccc23)CC1 | 5.01 µM [falling, single point] | 5.62 µM [falling, single point]
COc1cc(OC)c(NC(=O)C2CCCN(c3ncnc4c3nc3n4CCCCC3)C2)cc1Cl (stereo not drawn) |  | 5.62 µM [falling, partial curve]

3 compounds already listed, ordered by count of non-hydrogen atoms, descending.
SMILES | AC50 [1] | AC50 [2]
COc1cc(OC)c(NC(=O)C2CCCN(c3ncnc4c3nc3n4CCCCC3)C2)cc1Cl (stereo not drawn) |  | 5.62 µM [falling, partial curve]
COc1ccc(C(=O)NCC(O)COc2ccc(C(C)(C)C)cc2)cc1[N+](=O)[O-] (stereo not drawn) | 35.5 µM [rising, single point] | 15.8 µM [rising, single point]
COc1ccc(C2(C(N)=O)CCCCC2)cc1OC | 22.4 µM [rising, single point] | 1 µM [rising, partial curve, poor fit]
